Data as given in patent publication US20250270203A1, “NICOTINIC ACETYLCHOLINE RECEPTOR LIGANDS” (Philip Morris Products S.A., priority 2022, published 2025).
pKi: −log10 of the molar value. For at least one compound, name, drawing or mass did not settle the structure.

Protein sequences, listed by entry. Tags and fused reporters are not part of them. Residues count along the entry.
UniProt P30926, 22-498: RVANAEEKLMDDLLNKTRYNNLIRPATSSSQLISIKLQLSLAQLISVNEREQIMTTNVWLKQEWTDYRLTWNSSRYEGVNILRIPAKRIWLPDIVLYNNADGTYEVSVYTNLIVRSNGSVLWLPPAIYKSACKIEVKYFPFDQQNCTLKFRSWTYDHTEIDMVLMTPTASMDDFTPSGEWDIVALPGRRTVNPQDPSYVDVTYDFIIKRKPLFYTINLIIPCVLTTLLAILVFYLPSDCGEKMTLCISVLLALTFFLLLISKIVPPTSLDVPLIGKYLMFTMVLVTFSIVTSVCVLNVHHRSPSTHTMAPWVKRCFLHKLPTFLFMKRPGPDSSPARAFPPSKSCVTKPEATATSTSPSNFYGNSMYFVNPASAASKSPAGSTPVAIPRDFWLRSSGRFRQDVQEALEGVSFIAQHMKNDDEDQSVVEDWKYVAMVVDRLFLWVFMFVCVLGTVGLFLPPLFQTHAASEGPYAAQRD
UniProt P32297, 32-505: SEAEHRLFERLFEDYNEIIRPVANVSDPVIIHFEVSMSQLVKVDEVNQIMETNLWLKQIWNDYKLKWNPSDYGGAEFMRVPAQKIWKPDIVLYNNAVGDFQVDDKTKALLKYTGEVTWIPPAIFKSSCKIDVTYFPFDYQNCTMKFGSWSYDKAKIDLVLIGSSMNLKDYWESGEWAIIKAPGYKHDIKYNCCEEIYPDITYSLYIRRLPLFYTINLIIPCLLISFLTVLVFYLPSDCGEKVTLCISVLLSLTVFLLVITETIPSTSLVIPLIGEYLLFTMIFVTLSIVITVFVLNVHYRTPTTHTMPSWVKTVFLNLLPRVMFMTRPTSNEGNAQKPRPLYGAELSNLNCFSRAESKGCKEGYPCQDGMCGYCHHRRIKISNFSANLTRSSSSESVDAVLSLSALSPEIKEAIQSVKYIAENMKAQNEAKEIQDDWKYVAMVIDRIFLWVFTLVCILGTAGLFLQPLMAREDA
UniProt P36544, 23-502 limits assumed: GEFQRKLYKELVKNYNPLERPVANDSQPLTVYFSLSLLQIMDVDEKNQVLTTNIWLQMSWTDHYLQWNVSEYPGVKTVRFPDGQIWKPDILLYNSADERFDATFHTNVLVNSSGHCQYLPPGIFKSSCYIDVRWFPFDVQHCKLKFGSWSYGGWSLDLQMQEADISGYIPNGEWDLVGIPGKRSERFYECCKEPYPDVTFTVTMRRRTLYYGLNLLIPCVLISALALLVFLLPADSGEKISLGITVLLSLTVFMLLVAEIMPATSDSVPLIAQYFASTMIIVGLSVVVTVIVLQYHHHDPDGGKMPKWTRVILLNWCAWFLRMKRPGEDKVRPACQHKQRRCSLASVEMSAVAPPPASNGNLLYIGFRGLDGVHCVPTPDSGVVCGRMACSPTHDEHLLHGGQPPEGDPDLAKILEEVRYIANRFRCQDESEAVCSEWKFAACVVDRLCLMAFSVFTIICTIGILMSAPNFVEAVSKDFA
UniProt P17787, 26-502: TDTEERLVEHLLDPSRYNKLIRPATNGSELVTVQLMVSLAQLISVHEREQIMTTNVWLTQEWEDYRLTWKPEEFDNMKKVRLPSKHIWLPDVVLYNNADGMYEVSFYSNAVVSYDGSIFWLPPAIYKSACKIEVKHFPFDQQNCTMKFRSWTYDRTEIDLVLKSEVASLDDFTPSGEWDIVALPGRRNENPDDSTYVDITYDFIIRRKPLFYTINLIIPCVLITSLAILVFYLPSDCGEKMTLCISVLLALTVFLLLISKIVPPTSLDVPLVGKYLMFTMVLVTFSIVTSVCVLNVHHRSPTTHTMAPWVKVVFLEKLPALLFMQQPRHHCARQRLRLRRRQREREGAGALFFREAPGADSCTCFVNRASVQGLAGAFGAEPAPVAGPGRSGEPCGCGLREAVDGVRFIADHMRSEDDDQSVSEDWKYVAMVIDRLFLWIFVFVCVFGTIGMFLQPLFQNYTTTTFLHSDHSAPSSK
UniProt P43681, 29-627: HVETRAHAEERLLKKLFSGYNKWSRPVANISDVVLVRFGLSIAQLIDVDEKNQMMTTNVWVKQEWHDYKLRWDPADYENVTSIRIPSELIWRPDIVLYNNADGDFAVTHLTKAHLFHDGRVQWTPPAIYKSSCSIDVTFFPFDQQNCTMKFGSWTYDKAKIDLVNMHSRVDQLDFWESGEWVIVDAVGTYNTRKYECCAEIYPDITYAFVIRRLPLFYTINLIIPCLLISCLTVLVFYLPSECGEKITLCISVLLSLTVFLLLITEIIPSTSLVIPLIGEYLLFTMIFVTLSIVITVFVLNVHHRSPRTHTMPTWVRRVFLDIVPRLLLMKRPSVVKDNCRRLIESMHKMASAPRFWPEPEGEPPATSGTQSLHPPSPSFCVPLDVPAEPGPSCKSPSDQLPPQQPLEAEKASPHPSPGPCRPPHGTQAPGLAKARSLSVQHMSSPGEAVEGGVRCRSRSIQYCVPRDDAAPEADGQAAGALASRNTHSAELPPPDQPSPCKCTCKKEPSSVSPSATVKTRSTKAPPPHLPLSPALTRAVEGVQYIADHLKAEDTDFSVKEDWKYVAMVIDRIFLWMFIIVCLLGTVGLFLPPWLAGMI

Assays:
[1] = molecular target: α3β4 nAChR (Homo sapiens (Human), UniProt P30926+P32297); test: nAChR binding affinity, α3β4 subtype; settings: Table 2
[2] = molecular target: human α7 nAChR (Homo sapiens (Human), UniProt P36544); format: binding; settings: in words, from Ki at α7, α4β2, α3β4
[3] = molecular target: α4β2 nAChR (Homo sapiens (Human), UniProt P17787+P43681); test: nAChR binding affinity, α4β2 subtype; settings: Table 2

Question: What does the source list for c1cncc(C[C@@H]2[C@@H](Oc3ccc(-c4ccc5[nH]ccc5c4)nn3)C3CCN2CC3)c1 (racemic) [Compound 11, trans-5-[6-[2-(3-Pyridylmethyl)quinuclidin-3-yl]oxypyridazin-3-yl]-1H-indole]?
Answer: pKi [1]: 6.14; nAChR subtype preference / selectivity [2]: quite selective α7 nAChR ligand

Question: c1cncc(C[C@@H]2[C@@H](Oc3ccc(-c4ccc5[nH]ccc5c4)cn3)C3CCN2CC3)c1 (relative stereo) [Compound 5, trans-5-[6-[2-(3-Pyridylmethyl)quinuclidin-3-yl]oxy-3-pyridyl]-1H-indole] was tested. Which pKi [1] did it give?
Answer: 6.11

Question: And the pKi [3]?
Answer: 6.33
